No constants are given. Whether binding was seen depends on the method and setting. Binding seen in cells or lysates may run through a third protein. Some results given as binding are weak or reduced against the parent protein; the word gives no strength.
Legend:
Experiment in all cases: co-IP
[1] = molecular target: E2 receptor alpha (ERα) (human (endogenous in MCF-7)) (UniProt P03372)
[2] = molecular target: HTLV-1 Tax oncoprotein, wild type (HTLV-1) (UniProt P03409)
[3] = molecular target: CBP co-activator (endogenous) (human (endogenous in MCF-7)) (UniProt Q92793)
[4] = molecular target: p300 co-activator (endogenous) (human (endogenous in MCF-7)) (UniProt Q09472)

Chains of the proteins cited; added tags and fusions are not shown.
UniProt P03372: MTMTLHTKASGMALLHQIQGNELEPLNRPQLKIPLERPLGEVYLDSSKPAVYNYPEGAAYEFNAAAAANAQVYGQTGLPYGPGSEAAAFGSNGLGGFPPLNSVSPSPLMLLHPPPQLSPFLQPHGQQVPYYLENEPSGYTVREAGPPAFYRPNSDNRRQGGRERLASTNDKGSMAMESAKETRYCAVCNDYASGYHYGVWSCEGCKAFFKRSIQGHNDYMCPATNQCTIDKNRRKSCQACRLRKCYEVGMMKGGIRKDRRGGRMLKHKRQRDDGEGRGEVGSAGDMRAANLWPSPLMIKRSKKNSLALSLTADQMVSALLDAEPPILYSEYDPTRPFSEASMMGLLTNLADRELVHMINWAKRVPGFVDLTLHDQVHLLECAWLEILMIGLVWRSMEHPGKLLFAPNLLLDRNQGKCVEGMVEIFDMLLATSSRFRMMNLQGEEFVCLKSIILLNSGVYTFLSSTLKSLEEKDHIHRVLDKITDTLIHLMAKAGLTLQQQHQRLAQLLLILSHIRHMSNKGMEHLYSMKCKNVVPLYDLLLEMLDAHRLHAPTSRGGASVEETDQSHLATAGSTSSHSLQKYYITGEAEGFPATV

CBP co-activator (endogenous) (from UniProt Q92793 1-2442)
binding [1]: binds
binding [2]: binds

E2 receptor alpha (ERα) (from UniProt P03372 1-595)
binding [3]: binds
binding [4]: binds

HTLV-1 Tax oncoprotein, wild type (from UniProt P03409 1-353)
binding [3]: binds
binding [4]: binds

ectopic CBP (overexpressed from plasmid) (from UniProt Q92793 1-2442)
binding [1]: binds
binding [2]: binds

ectopic p300 (overexpressed from plasmid) (from UniProt Q09472 1-2414)
binding [1]: binds
binding [2]: binds

p300 co-activator (endogenous) (from UniProt Q09472 1-2414)
binding [1]: binds
binding [2]: binds
